In PubChem BioAssay AID977622 (Broad Institute, 2014) one finds activity change data, which are given here for 41 compounds.

Structures are written as SMILES. This is one part of the list. Shown are side measurements of this screen, not its main read-out; they come without a call.

The nature of test [1]: wild-type E. coli growth inhibition versus h38 humanized strain – h38 mutant RFP, wild-type GFP, cherry-pick, dose response (AID 977622). The note with it: E. coli mixed culture, 24 h, total growth OD600 at 50 uM.
In test [2] the test system is E. coli h38 humanized mutant ribosome RFP fluorescence, mixed culture, 24 h. The description is as above. Conditions: h38 mutant RFP at 50 uM.

Consider `O=C(Nc1cccc(Cl)c1)N1C[C@H]2[C@@H](c3ccccc31)[C@H](CO)N2Cc1ccncc1`, for which the activity change in test [1] was -13.9%; in test [2], 31.4%. In the case of `CC1CCCN(c2ccc(C(=O)NCCc3ccccc3)cn2)C1` (stereo not given), the activity change in test [1] was -41.8%; in test [2] it was -30.6%. Consider `COc1cc(SC)ccc1C(=O)N1CCN(c2ccccc2F)CC1`, for which the activity change in test [1] is -49.1%. For `CC1(C(=O)NS(=O)(=O)c2cccc(C#N)c2)CCN1C(=O)C1(c2ccc(Cl)cc2)CCC1` (stereo not given), the activity change in test [1] was -29.9%; in test [2] it was -19.6%. The corresponding values for `O=S(=O)(Nc1cccc(-c2ccc(N3CCCCCC3)nn2)c1)c1ccc(F)cc1` are -86% and 37.5%. The corresponding values for `O=C(O)CCSc1nc2ccccc2n1-c1ccccc1` are -71.3% and -11.6%. For `COc1ccc(C#Cc2ccc([C@@H]3[C@@H](CO)N4CCCCN(C(=O)Nc5ccccc5F)C[C@H]34)cc2)cc1`, in test [2], the activity change turned out to be 15.2%.

Consider `C(=C\c1ccc(C2[C@H]3CNC[C@@H]2N3Cc2nccs2)cc1)/c1ccccc1` (stereo not given in full), for which the activity change in test [1] is -77.5%; in test [2], 0.126%. The corresponding values for `C=C(C)Cn1c(=O)c2c(nc3n2CCCN3Cc2ccccc2)n(C)c1=O` are -45.8% and 21.4%. For `COc1cccc(OC)c1CNC(=O)CCSCc1ccccc1F`, in that order: -18.3% and -13.5%.

Take `Cc1cc(C)cc(NS(=O)(=O)c2c(C(=O)N3CCCCCC3)c(C)n(C)c2C)c1`: the activity change is -2.59% in test [1] and -1.45% in test [2]. `CC(Nc1ncnc2ccccc12)c1ccccc1` (stereo not given): the activity change is -23.7% in test [1] and 4.28% in test [2]. Regarding `CCCCC(=O)N(Cc1ccc2c(c1)OCO2)Cc1nc2ccccc2c(=O)[nH]1`, the activity change in test [1] was -46.5%. Regarding `Nc1[nH]c(C(=O)c2ccccc2)c(-c2ccc(Br)cc2)c1C(=O)c1cccs1`, the results for the activity change in test [1] and in test [2] were -33.7% and 9.39%, respectively. For `C[C@H]1CCCCO[C@@H](CN(C)C)[C@@H](C)CN([C@@H](C)CO)C(=O)c2cc(NC(=O)Nc3cccc4ccccc34)ccc2O1`, in that order: -0.43% and -9.39%. The corresponding values for `COc1cccc(-n2nnnc2SCC(=O)NCc2ccc3c(c2)OCO3)c1` are -33.9% and 12.1%. The corresponding values for `Cc1ccnc(NS(=O)(=O)c2ccc(NC(=O)c3ccc4c(c3)OCCO4)cc2)n1` are -28.9% and 7.81%. Consider `CCOC(=O)c1sc(NC(=O)CN2CCN(c3ccccc3)CC2)nc1C`, for which the figures for the activity change in test [1] and in test [2] were -34.5% and -24.8%, respectively. With `C[C@H](NC(=O)C[C@@H]1C[C@@H]2c3cc(NS(=O)(=O)c4ccc(F)cc4)ccc3O[C@@H]2[C@@H](CO)O1)c1ccccc1`, the figures for the activity change in test [1] and in test [2] were -24% and 2.72%, respectively. The corresponding values for `Cc1ccc(OCC(O)CN2CCN(c3ccccn3)CC2)c(C)c1` (stereo not given) are -56.3% and -12.1%. Take `CCNc1nc(N)c(C(=O)C23CC4CC(CC(C4)C2)C3)s1`: the activity change in test [1] was -10.3%; in test [2], -13.8%. With `COc1ccc(C(=O)NCCc2ccccn2)cc1S(=O)(=O)Nc1ccc(Br)cc1`, the results for the activity change in test [1] and in test [2] were -32.3% and -30.3%, respectively. The corresponding values for `Cc1cc(NC(=O)c2cccc(Oc3ccccc3)c2)n[nH]1` are -54.2% and 20.5%.

Turning to `COc1ccc(CN(CC(O)COCc2ccccc2)S(=O)(=O)c2ccccc2Br)cc1OC` (stereo not given), the activity change is -72.6% in test [1] and 10.9% in test [2]. For `COc1ccc(NC(=O)CN(C)C(=O)c2cc(C3CC3)nn2-c2ccccc2)cc1`, in that order: -14% and 0.855%. For the compound `Cc1cc(NC(=O)CCN2C(=O)C3C4C=CC(C4)C3C2=O)ccc1Br` (stereo not given), the activity change in test [1] was -19%. `Cc1ccccc1-c1ccc([C@@H]2[C@@H](CO)N3CCCCN(C(=O)Nc4ccc(F)cc4)C[C@@H]23)cc1`: the activity change in test [1] was -63.4%; in test [2], 3.49%. The corresponding values for `COc1ccc(NC(=O)Nc2cccc3c2O[C@H](CN(C)S(=O)(=O)c2ccc(Cl)cc2)[C@@H](C)CN([C@H](C)CO)C3=O)cc1` are -52.5% and -0.134%. Consider `COC(=O)COc1ccc(S(=O)(=O)N2CCc3ccccc3C2)cc1C`, for which, in test [1], the activity change is -29.7%. On to `O=C(Nc1cccc(S(=O)(=O)N2CCCCC2)c1)c1ccc(Cl)nc1`, for which the results for the activity change in test [1] and in test [2] were -25.5% and -12.2%, respectively. Regarding `COc1cc(CN2CC(=O)N(c3ccccc3Cl)C2=S)cc(OC)c1OC`, the results for the activity change in test [1] and in test [2] were -37% and 12.5%, respectively. In the case of `CCN(CC)CCn1c(SCC(=O)Nc2cccc(OC)c2)nc2c(sc3ccccc32)c1=O`, the figures for the activity change in test [1] and in test [2] were -57.4% and -16.6%, respectively. For `COc1ccccc1CC(=O)NCCc1c[nH]c2ccccc12`, in that order: -7.73% and 7.6%.

On to `COC(=O)c1cc2c(c3c4cc(OC)ccc4n(C(=O)c4ccccc4)c13)C(=O)N(Cc1ccco1)C2`, for which the activity change is -9.88% in test [1] and -39.2% in test [2]. On to `O=C(c1cccs1)c1c[nH]cc1-c1ccccc1`, for which the values for the activity change in test [1] and in test [2] were -13.5% and -29.7%, respectively. The corresponding values for `O=C(NCc1ccccc1)C1C(=O)Nc2ccccc2C(=O)N1c1ccc2c(c1)OCCO2` (stereo not given) are -7.47% and -1.93%. The corresponding values for `Cc1ccc(C(=O)Nc2ccc(C)c(S(=O)(=O)Nc3ccccc3Cl)c2)s1` are -64.9% and 3.4%. For `CC1CC(C)CN(C(=O)c2ccc(-c3ccc([N+](=O)[O-])cc3)o2)C1` (stereo not given), the activity change in test [1] is -80.1%. Turning to `Cc1cc(NC(=O)CS(=O)(=O)c2cn(Cc3cccc(Br)c3)c3ccccc23)no1`, the activity change in test [1] is -48.6%; in test [2] it was -17.8%. Regarding `COc1cccc(C(=O)NC(C)c2ccc(Br)cc2)c1` (stereo not given), the activity change in test [1] was -20.9%.

In the case of `Brc1ccc(-c2nc3c4ccccc4ccn3c2Cc2ccccc2)cc1`, the activity change in test [1] came to 8.63%; in test [2], 10.1%.
